Measurements reported in PubChem BioAssay AID1508597 (Cure First, 2020)

- Test: 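Survival screen with siRNA in ovarian cancer cells derived from patients, with or without rucaparib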 (primary screen)
- Cell system: human ovarian carcinoma lines grown from tumours: OCI-P5x (papillary serous) and OCI-C5x (clear cell)
- Knock-down reagent: siRNA pool against human genes, 1.25 pmol siRNA per well
- Timing: 72 h or 96 h, depending on the cell culture
- Treatment: rucaparib 20 µM (about IC30) or vehicle, present until read-out
- Rucaparib or vehicle: Vehicle
- Cell line: OCI-P5x (serous)
- Measured: 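ATP luminescence measured at 72 or 96 h according to the culture, then normalised and expressed as percent viability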
- Direction: viability, normalised: higher = more viable cells remaining
- Call rule: 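Active when normalised viability falls below 80 percent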
- Meaning of the calls: active = viability under 80%; inactive = viability 80% or more
This is a random part of the about 2,100 reagents, in one setting of the screen. 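Calls flag viability under 80% in either arm, not effects specific to rucaparib; the reference for percent is not stated.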 Unmarked entries are inactive. A reagent listed more than once was tested more than once; the source does not tell the runs apart. Not given: the 100% reference.

target gene	technical replicate	viability, normalised (%)
PDE1C	1	63 (active)
PDE1C	2	70.7 (active)
PDE1C	3	68.4 (active)
CLDN8	1	59.3 (active)
CLDN8	2	66.1 (active)
CLDN8	3	112
PAK5	1	65.3 (active)
PAK5	2	69.6 (active)
PAK5	3	78.6 (active)
AEBP2	1	69.1 (active)
AEBP2	2	67.3 (active)
AEBP2	3	72 (active)
MAPKAPK5	1	70.3 (active)
MAPKAPK5	2	90.6
MAPKAPK5	3	88.7
PSENEN	1	73.4 (active)
PSENEN	2	67 (active)
PSENEN	3	81.6
RAD9A	1	77.8 (active)
RAD9A	2	72.7 (active)
RAD9A	3	107
SMAD1	1	40.8 (active)
SMAD1	2	41.3 (active)
SMAD1	3	43.2 (active)
PARP10	1	46.1 (active)
PARP10	2	45.2 (active)
PARP10	3	56.1 (active)
FGFR3	1	73.7 (active)
FGFR3	2	59.3 (active)
FGFR3	3	66.1 (active)
WDR45B	1	76.3 (active)
WDR45B	2	82.2
WDR45B	3	72.2 (active)
NLGN1	1	33.7 (active)
NLGN1	2	34 (active)
NLGN1	3	42.3 (active)
PRKCI	1	62.9 (active)
PRKCI	1	54.4 (active)
PRKCI	2	71.2 (active)
PRKCI	2	55.1 (active)
PRKCI	3	50.6 (active)
PRKCI	3	55.2 (active)

4 entries from above, reformatted:
{"target gene": "PAK5", "technical replicate": "3", "viability, normalised (%)": "78.6 (active)"}
{"target gene": "AEBP2", "technical replicate": "1", "viability, normalised (%)": "69.1 (active)"}
{"target gene": "AEBP2", "technical replicate": "2", "viability, normalised (%)": "67.3 (active)"}
{"target gene": "AEBP2", "technical replicate": "3", "viability, normalised (%)": "72 (active)"}
